Screening data, single-dose tests

Sequences of proteins named here, by UniProt entry; tags and fusion partners are left off. Residues count along the entry.
UniProt Q4DA54, 1-478: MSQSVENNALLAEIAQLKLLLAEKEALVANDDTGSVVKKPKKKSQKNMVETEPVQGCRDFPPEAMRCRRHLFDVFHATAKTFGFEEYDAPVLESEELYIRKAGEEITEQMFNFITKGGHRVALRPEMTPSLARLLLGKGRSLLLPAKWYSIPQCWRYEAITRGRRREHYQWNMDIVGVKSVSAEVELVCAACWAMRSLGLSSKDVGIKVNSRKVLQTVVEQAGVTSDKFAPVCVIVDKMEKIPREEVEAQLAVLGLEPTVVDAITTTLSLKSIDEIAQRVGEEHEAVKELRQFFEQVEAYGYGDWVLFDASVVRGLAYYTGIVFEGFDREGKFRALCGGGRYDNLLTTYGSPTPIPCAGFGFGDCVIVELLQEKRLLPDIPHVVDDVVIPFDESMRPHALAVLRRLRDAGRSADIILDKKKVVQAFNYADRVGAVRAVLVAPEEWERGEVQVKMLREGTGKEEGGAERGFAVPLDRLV
UniProt A4I591, 1-473: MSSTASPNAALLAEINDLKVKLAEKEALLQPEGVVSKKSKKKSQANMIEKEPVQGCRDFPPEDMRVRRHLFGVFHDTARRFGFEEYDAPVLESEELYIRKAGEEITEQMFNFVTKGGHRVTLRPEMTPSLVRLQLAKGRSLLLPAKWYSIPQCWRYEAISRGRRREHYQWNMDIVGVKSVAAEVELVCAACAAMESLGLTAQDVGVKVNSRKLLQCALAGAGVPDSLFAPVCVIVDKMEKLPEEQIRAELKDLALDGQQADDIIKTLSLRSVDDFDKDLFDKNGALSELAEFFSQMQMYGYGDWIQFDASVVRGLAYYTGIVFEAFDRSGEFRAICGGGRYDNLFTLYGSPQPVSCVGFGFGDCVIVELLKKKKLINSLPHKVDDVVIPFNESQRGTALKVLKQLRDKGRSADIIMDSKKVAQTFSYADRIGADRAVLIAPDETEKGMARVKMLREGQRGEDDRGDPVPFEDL
UniProt P9WPC5, whole entry: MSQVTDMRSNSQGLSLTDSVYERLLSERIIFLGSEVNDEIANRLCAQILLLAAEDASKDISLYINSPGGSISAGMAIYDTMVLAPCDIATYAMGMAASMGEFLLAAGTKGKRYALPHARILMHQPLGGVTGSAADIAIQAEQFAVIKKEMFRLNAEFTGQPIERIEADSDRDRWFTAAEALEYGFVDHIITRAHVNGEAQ
UniProt P9WPC3, whole entry partner: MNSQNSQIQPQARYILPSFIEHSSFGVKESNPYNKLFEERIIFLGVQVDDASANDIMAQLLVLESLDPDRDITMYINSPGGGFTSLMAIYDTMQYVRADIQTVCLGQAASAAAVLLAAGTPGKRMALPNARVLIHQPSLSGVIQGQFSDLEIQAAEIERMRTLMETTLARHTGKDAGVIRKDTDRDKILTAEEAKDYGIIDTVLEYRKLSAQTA

Toxoplasma: 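Assay of Toxoplasma gondii numbers, read through their beta-galactosidase reporter with a colour substrate. Tested at 10 µM. The record gives no direction; the compounds picked for IC50 retests had high values, so higher reads as fewer parasites. About 67,000 compounds were tested under these conditions; 0.38% (about 260) showed 50% or more at least once.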
Leishmania in macrophages: 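Cell assay of Leishmania donovani living inside macrophages; the read-out is not stated. Tested at 30 µM. Higher reads as stronger inhibition (inferred: compounds with an IC50 in retests scored well above the rest). Of about 69,000 compounds tested this way, about 1,000 (1.5%) reached 50% or more in at least one test.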
TcHisRS: 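Histidine-tRNA ligase, Trypanosoma cruzi CL Brener (UniProt Q4DA54). Enzyme assay of histidyl-tRNA synthetase; the read-out is not stated. Tested at 30 µM. The record gives no direction; compounds that gave an IC50 in retests scored well above the rest, so higher reads as stronger inhibition. Size under these conditions: about 69,000 compounds, about 31 of them at 50% or above in at least one test.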
LiHisRS: 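Histidine-tRNA ligase, Leishmania infantum (UniProt A4I591). Enzyme assay of histidyl-tRNA synthetase; the read-out is not stated. Concentration: 30 µM. Higher reads as stronger inhibition (inferred: compounds with an IC50 in retests scored well above the rest). The assay is labelled LdHisRS but filed under L. infantum. Of about 69,000 compounds tested this way, about 410 (0.6%) reached 50% or more in at least one test.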
ClpP1P2: 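Protease assay of ClpP1P2, read by the AMC dye that it sets free. Target: ClpP1P2, Mycobacterium tuberculosis (UniProt P9WPC5 and UniProt P9WPC3). Concentration: 50 µM. Direction is inferred from only a few compounds that gave an IC50; most scored high, so higher reads as stronger inhibition. Most other retested compounds had strongly negative values. About 69,000 compounds were tested under these conditions; 0.015% (about 10) showed 50% or more at least once.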
T. brucei: 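Whole-parasite assay of Trypanosoma brucei over 72 hours; the read-out is not stated. Concentration: 30 µM. Direction is inferred from retests: higher values go with stronger inhibition. Values scatter widely below zero; nearly all retest evidence comes from the higher of the two concentrations used. About 64,000 compounds were tested under these conditions; 1.5% (about 940) showed 50% or more at least once.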

The filed quantity is “Percent Effect” (%).
The controls that fix the scale are not given in the record; negative values are as filed.
Compounds were drawn at random from those tested, without regard to their results.
Two or more numbers in one place are separate tests of the same structure; such repeats can differ widely.

{"compound": "Cn1ncnc1NCc1ccc(Cl)cc1", "Toxoplasma": -1.128, "Leishmania in macrophages": -10.36, "TcHisRS": 3.483, "LiHisRS": 6.024, "ClpP1P2": -1.319, "T. brucei": -35.65}
{"compound": "Cc1ncnc2c1CCN(C(=O)c1cnccn1)CC2", "Toxoplasma": 5.542, "Leishmania in macrophages": 22.93, "TcHisRS": 5.473, "LiHisRS": 22.22, "ClpP1P2": -9.59, "T. brucei": 17.88}
{"compound": "CNc1cncc(C2CCCN2C(=O)c2ccc3nc(C)[nH]c3c2)n1", "stereo": "centres undefined", "Toxoplasma": -23.64, "Leishmania in macrophages": "10.57 & 12.53", "TcHisRS": 3.297, "LiHisRS": 7.246, "ClpP1P2": -31.17, "T. brucei": -10.15}
{"compound": "Cc1nc(C)n(CCCNc2ncnc3onc(C)c23)n1", "Toxoplasma": 1.876, "Leishmania in macrophages": 9.269, "TcHisRS": 6.329, "LiHisRS": 14.58, "ClpP1P2": -4.019, "T. brucei": -0.3977}
{"compound": "CCn1cc(CN2CCCN(C(=O)c3ccoc3C)CC2)cn1", "Toxoplasma": 15.63, "Leishmania in macrophages": 13.63, "TcHisRS": 3.207, "LiHisRS": 7.965, "ClpP1P2": -29.36}
{"compound": "Clc1ccc(C2(NCc3noc(C4CC4)n3)CCCC2)cc1", "Toxoplasma": -13.1, "Leishmania in macrophages": -17.35, "TcHisRS": -1.053, "LiHisRS": 13.7, "ClpP1P2": -14.48, "T. brucei": 6.504}
{"compound": "CCOc1ccc(SCCS(=O)(=O)CC)cc1", "Toxoplasma": -4.628, "Leishmania in macrophages": 15.74, "TcHisRS": 7.071, "LiHisRS": 18.09, "ClpP1P2": 9.422, "T. brucei": -14.03}
{"compound": "CN(C)C(=O)N1CCC2(CC1)CCN(Cc1ccccn1)C2=O", "TcHisRS": 4, "LiHisRS": 7.965, "ClpP1P2": 1.12}
{"compound": "Cc1cc(C)n(CC2CN(CC(=O)NC3CCCC3)CCO2)n1", "stereo": "centres undefined", "Toxoplasma": 0.1059, "Leishmania in macrophages": 8.397, "TcHisRS": 4.58, "LiHisRS": 2.74, "ClpP1P2": 2.479, "T. brucei": -21.6}
{"compound": "CCCN1CCC[C@]2(CCC(=O)N2Cc2ccncc2)[C@H]1CC.O=C(O)C(F)(F)F.O=C(O)C(F)(F)F", "Toxoplasma": 16.24, "Leishmania in macrophages": -2.592, "T. brucei": -1.442}
{"compound": "CC(c1ccc(Cl)cc1)N1CCN(CCNS(C)(=O)=O)CC1", "stereo": "centres undefined", "Toxoplasma": -1.385, "Leishmania in macrophages": 5.302, "TcHisRS": 0, "LiHisRS": 15.38, "ClpP1P2": -12.57, "T. brucei": 6.837}
{"compound": "Cc1nn(C)c(N2CCOCC2)c1CNCc1ccc(N(C)C)nc1", "Toxoplasma": 13.18, "Leishmania in macrophages": 15.38, "TcHisRS": 2.041, "LiHisRS": 11.5, "ClpP1P2": -39.98}
{"compound": "c1cnc2c(CN3CCCCC3c3ccncn3)cnn2c1", "stereo": "centres undefined", "Toxoplasma": 3.696, "Leishmania in macrophages": 9.705, "TcHisRS": 6.513, "LiHisRS": 14.29, "ClpP1P2": -10.24, "T. brucei": -4.175}
{"compound": "[H][C@]12CC[C@]([H])(CN(c3nnc(C(C)C)s3)C1)N(CCC)C2", "Toxoplasma": 11.15, "Leishmania in macrophages": -49.1, "T. brucei": -40.91}
{"compound": "CN(C)c1nc2sc(C(=O)N3CCN(C(=O)OC(C)(C)C)CC3)cc2s1", "Toxoplasma": -3.036, "Leishmania in macrophages": 5.64, "TcHisRS": 0, "LiHisRS": 10.62, "ClpP1P2": -4.191, "T. brucei": -101}

Repeated from the top, 2 entries:

| compound | Toxoplasma | Leishmania in macrophages | TcHisRS | LiHisRS | ClpP1P2 | T. brucei |
|---|---|---|---|---|---|---|
| `Cn1ncnc1NCc1ccc(Cl)cc1` | -1.128 | -10.36 | 3.483 | 6.024 | -1.319 | -35.65 |
| `Cc1ncnc2c1CCN(C(=O)c1cnccn1)CC2` | 5.542 | 22.93 | 5.473 | 22.22 | -9.59 | 17.88 |

Source: ChEMBL document CHEMBL3988442, “University of Dundee, Small-Polar-MMV Screening Library” (2021).